{
  "source": "patent US9353415B2",
  "about": "“Methods for functional analysis of high-throughput experimental data and gene groups identified therefrom” (Thomson Reuters (Scientific) LLC, priority 2006, dated 2016)",
  "system": "CREB pathway",
  "assay": "microarray gene expression from the livers of rats exposed to drugs, mapped on pathway maps (signature networks method)",
  "format": "in vivo",
  "details": "rat liver, treated vs untreated, custom cDNA two-channel arrays, five repeats; no threshold for fold change and P-values; FIG. 16C",
  "note": "At least one compound was matched to its structure with a doubt left.",
  "data": [
    {"compound": "CCC1(c2ccccc2)C(=O)NC(=O)NC1=O", "note": "[phenobarbital]", "values": [
      {"measurement": "direction of expression (fold change) of genes on the highest scored pathway map, CREB pathway", "value": "up-regulated"}
    ]}
  ]
}
